Measurements: patent publication US20250011881A1, “MYC-HSF1 DUAL AMPLIFICATION AS A BIOMARKER FOR CANCER TREATMENT” (The Trustees of Indiana University, priority 2023, published 2025)
Where two headings read alike, the source gives them in different places.

System: ovarian cancer cells with (OVCAR8, OVCAR4) or without (OVSAHO, CAOV3) MYC-HSF1 amplification
Experiment: Epigenetic inhibitor drug screen, cell viability (Cell Titer Blue)
Format: cell-based

SMILES | Non Amp - AMP (POC) 10 uM (10 uM, 48 hrs, average relative cell viability (vs 1% DMSO) of non-amplified cells (OVSAHO, CAOV3) minus that of MYC-HSF1 amplified cells (OVCAR8, OVCAR4), positive = greater response in amplified cells) | Non Amp - AMP (POC) 10 uM
Cc1ccc(C(=O)NCCCCCC(=O)Nc2ccccc2N)cc1 [RG2833] | 17.84 POC | 
Cc1ccc(C(=O)NCCCCCC(=O)Nc2ccccc2N)cc1 [RGFP109] |  | 50.52 POC
